Measured values from patent publication US20250249092A1 (TORAY INDUSTRIES, published 2025).
Where a chain is given by its changes, count along the chain named. Results are given in words; binding and its absence hold for the method and conditions named. Some entries that bind do so weakly or less than the wild type. Each block holds one binder with its values, some of them ahead of it.

Assays:
[1] = biological target: T1, CAPRIN-1 protein (UniProt Q14444); experiment: ELISA
T1 sequence (looked up): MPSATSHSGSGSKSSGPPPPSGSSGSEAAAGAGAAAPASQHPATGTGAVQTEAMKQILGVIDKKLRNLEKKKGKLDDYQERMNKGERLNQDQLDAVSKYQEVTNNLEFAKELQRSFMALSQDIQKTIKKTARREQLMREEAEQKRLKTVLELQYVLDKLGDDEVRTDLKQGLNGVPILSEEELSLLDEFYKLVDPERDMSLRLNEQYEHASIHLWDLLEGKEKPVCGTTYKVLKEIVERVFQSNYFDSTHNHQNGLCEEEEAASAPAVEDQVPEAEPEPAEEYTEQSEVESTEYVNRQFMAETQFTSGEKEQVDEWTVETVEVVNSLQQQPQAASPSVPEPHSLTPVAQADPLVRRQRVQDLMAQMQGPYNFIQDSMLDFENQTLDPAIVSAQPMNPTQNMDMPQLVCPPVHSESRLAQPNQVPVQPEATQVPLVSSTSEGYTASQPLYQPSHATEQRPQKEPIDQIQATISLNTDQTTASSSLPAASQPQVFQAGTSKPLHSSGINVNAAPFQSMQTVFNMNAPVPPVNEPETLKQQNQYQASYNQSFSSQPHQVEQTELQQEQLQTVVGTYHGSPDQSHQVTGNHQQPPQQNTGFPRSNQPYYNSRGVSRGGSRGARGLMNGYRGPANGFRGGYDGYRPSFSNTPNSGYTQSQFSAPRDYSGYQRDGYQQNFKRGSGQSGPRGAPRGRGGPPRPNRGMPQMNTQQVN

[2] = biological target: T2, CAPRIN-1 protein on the cell membrane surface of cancer cells (UniProt Q14444); experiment: flow cytometry
T2 sequence (looked up): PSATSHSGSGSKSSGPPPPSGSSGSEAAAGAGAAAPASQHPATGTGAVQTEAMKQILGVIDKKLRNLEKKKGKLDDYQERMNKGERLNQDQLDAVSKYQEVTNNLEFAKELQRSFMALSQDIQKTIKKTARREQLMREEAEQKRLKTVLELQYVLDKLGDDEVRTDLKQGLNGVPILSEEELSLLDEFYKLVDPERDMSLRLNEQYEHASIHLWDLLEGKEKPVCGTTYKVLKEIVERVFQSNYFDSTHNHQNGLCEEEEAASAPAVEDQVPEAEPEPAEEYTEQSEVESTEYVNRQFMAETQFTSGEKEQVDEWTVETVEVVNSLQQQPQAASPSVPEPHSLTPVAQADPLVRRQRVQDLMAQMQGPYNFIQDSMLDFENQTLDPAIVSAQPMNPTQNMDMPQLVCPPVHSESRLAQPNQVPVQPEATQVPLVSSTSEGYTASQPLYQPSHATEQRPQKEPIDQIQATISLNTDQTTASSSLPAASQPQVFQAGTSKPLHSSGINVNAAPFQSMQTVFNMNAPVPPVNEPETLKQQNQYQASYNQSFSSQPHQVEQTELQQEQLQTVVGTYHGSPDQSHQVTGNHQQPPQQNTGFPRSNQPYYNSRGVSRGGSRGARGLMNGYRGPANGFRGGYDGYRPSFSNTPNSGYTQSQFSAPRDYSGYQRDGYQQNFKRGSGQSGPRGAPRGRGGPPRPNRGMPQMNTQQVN

- binding [1]: binds
- binding [2]: binds
B1: Conjugate 29 (antibody, V domains shown)
VH: AVTLDESGGGLQMSRGGLSLVCKASGFDFSSYQMNWIRQAPGKGLEFVAAINKFGNSTGHGAAVKGRVTISRDNGQSTVRLQLNNLRAEDTAIYFCTKHAYGYCGSGTWCAAGEIDAWGHGTEVIVSS
VL: QAASTQPSSVSANPGETVEITCSGGGSYSYGWFQQKSPGSAPVTVIYYNNKRPSDIPSRFSGSKSGSTGTLTITGVQADDEAVYYCGSGDSTDTAVFGAGTTLTVLG
notes: mouse chimeric antibody #1 (mouse IgG constant regions) + resiquimod, MC-Val-Cit-PAB linker

- binding [1]: binds
- binding [2]: binds
B2: Conjugate 33 (antibody, V domains shown)
VH: B1 VH
VL: B1 VL
notes: mouse chimeric antibody #1 (mouse IgG constant regions) + resiquimod derivative, SATA and SMCC linkers

- binding [1]: binds
- binding [2]: binds
B3: Conjugate 165 (antibody, human IgG1, V domains shown)
VH: GPDLVKPGASVKISCKASGYSFTAYYMHWVKQSHGKSLEWIGRVNPNNGGTTYNQKFKGKAILTVDKSSSTAYMELRSLTFEDSAVYYCARRIYYGYFDYWGQGTTVTVSS
VL: AFFAVSLGQRATISCKASQSVDYDGDSYMNWYQQKPGQPPKLLIYVASNLESGVPARFSGSGSGTDFTLNIHPVEEEDAATYYCQQSNEDPYTFGGGTKLEIKQ

- binding [1]: binds
- binding [2]: binds
B4: Conjugate 181 (antibody, V domains shown)
VH: GAELVRSGASVKMSCKASGYSFTDYNMYWVKQTPGQGLEWIGYIYPGNGGTNYNQKFKGKATLTADTSSSTAYMQISSLTSEDSAVYFCARDYDDGGYAMDYWGQGTTVTVSS
VL: DIQMTQSPASLSASVGETVTITCRASGNIHNYLTWYQQKQGKSPQLLVYNAKTLADGVPSRFSGSGSGTQYSLKINRLQPEDFGSYYCQHFWNIPWTFGGGTKLNSR

- binding [1]: binds
- binding [2]: binds
B5: Conjugate 154 (antibody, human IgG1, V domains shown)
VH: EVQLHQFGAELVKPGASVKISCKASGYTFTDYNMDWVKQSHGKSLEWIGDINPNYDSTSYNQKFKGKATLTVDKSSSTAYMELRSLTSEDTAVYYCARSRSYDYEGFAYWGQGTLVTVSA
VL: DIQMTQSPASLSASVGETVTITCRASGNIHNYLAWYQQKQGKSPQLLVYNAKTLADGVPSRFSGSGSGTQYSLKINSLQPEDFGSYYCQHFWSTLTFGAGTKLELKR

- binding [1]: binds
- binding [2]: binds
B6: Conjugate 171 (antibody, human IgG1, V domains shown)
VH: EVQLVESGGGLVQPGGSLRLSCAASGFSLSSHSLGWVRQAPGKGLEWIGDIRSGGSAYYANWAKGRFTISRDNSKNTLYLQMNSLRAEDTAVYYCTRTNGPSDLTNRLDLWGQGTLVTVSS
VL: QVLTQSPSSLSASVGDRVTINCQASQSLYNNENLAWFQQKPGKVPKRLIYGASTLASGVSSRFSGSGSGTEFTLTISSLQCEDFAIYYCLGEFSCGSADCFAFGGGTKVEIK

- binding [1]: binds
- binding [2]: binds
B7: Conjugate 174 (antibody, human IgG1, V domains shown)
VH: B6 VH with Y94F
VL: EIVLTQSPSSLSASVGDRVTINCQASQSLYNNENLAWFQQKPGKVPKRLIYGASTLASGVSSRFSGSGSGTEFTLTISNLQPEDFATYYCLGEFSCGSADCFAFGGGTKVEIK

- binding [1]: binds
- binding [2]: binds
B8: Conjugate 176 (antibody, human IgG1, V domains shown)
VH: B6 VH with Y94F
VL: B7 VL with I2Q, T87I

- binding [1]: binds
- binding [2]: binds
B9: Conjugate 173 (antibody, human IgG1, V domains shown)
VH: B6 VH
VL: B7 VL with I2Q, T87I

- binding [1]: binds
- binding [2]: binds
B10: Conjugate 175 (antibody, human IgG1, V domains shown)
VH: B6 VH
VL: B7 VL

- binding [1]: binds
- binding [2]: binds
B11: Conjugate 172 (antibody, human IgG1, V domains shown)
VH: B6 VH with Y94F
VL: B6 VL

- binding [1]: binds
- binding [2]: binds
B12: Conjugate 45 (antibody, human IgG1, V domains shown)
VH: AVTLDESGGGLQTPGGALSLVCKASGFTFSGYDMLWVRQAPGKGLEWVAGIGSTGGGTDYGAAVKGRATISRDNGQSTVRLQLNNLRAEDTATYYCAKVAGGCNSGYCRDSPGSIDAWGHGTEVIVS
VL: AVTQQPASVSANPGETVKITCSGGGSRNYYGWYQQKSPGSVPVTVIYYDDQRPSNIPSRFSGALSGSTSTLTITGVQADDEAVYFCGSADSNTYEGSFGAGTTLTVL

- binding [1]: binds
- binding [2]: binds
B13: Conjugate 177 (antibody, V domains shown)
VH: B12 VH
VL: B12 VL

- binding [1]: binds
- binding [2]: binds
B14: Conjugate 149 (antibody, human IgG1, V domains shown)
VH: DAELVKPGASVKISCKASGYTFTDHSIHWVQQKPEQGLEWIGYISPGNGNIKYNEKFKGKATLTADKSSSTAYMQLNSLTSEDSAVYFCKRSLGRGGPYYFDYWGQGTTVTVSS
VL: DIVLTQAAPSLPVTPGESVSISCRSSKSLLHSNGNTYLYWFLQRPGQSPQLLIYRMSNLASGVPDRFSGSGSGTAFTLRISRVEAEDVGVYYCMQHREYPVTFGSGPN

- binding [1]: binds
- binding [2]: binds
B15: Conjugate 182 (antibody, V domains shown)
VH: B14 VH
VL: B14 VL

- binding [1]: binds
- binding [2]: binds
B16: Conjugate 31 (antibody, V domains shown)
VH: AVTLDESGGGLQTPGGGLSLVCKASGFTFSSFDMGWVRQAPGKGLEFVAQINDAGSRTWYATAVKGRATISRDNGQTTVRLQLNNLRAEDTGTYYCTRGSGYVGAGAIDAWGHGTEVIVS
VL: AALTQPSSVSANPGETVKITCSGGSGYYGWYQQQKSPGSAPVTVIYQNDKRPSDIPSRFSGSGSGSTNTLTITGVQAEDEAVYFCGRYDSTDSGIFGAGTTLTVL
notes: mouse chimeric antibody #3 (mouse IgG constant regions) + resiquimod, MC-Val-Cit-PAB linker

- binding [1]: binds
- binding [2]: binds
B17: Conjugate 35 (antibody, V domains shown)
VH: B16 VH
VL: B16 VL
notes: mouse chimeric antibody #3 (mouse IgG constant regions) + resiquimod derivative, SATA and SMCC linkers
